Test results published in article PMC3828775.
These are yes or no findings as the source states them, for the method shown. In cells and extracts the contact can be indirect. Some binding calls cover weakened binding; strength is not graded here. For some assays here: Where a sequence is shown, tags or fusion partners need not be part of it. Values belong to the molecule of their own block, whether it stands above or below them.

By UniProt entry, the sequences of proteins in these tests, tags left out. Where a name states a change or a piece, a line headed by the entry shows the natural chain unless it says otherwise. Residues count along the entry.
UniProt P49792: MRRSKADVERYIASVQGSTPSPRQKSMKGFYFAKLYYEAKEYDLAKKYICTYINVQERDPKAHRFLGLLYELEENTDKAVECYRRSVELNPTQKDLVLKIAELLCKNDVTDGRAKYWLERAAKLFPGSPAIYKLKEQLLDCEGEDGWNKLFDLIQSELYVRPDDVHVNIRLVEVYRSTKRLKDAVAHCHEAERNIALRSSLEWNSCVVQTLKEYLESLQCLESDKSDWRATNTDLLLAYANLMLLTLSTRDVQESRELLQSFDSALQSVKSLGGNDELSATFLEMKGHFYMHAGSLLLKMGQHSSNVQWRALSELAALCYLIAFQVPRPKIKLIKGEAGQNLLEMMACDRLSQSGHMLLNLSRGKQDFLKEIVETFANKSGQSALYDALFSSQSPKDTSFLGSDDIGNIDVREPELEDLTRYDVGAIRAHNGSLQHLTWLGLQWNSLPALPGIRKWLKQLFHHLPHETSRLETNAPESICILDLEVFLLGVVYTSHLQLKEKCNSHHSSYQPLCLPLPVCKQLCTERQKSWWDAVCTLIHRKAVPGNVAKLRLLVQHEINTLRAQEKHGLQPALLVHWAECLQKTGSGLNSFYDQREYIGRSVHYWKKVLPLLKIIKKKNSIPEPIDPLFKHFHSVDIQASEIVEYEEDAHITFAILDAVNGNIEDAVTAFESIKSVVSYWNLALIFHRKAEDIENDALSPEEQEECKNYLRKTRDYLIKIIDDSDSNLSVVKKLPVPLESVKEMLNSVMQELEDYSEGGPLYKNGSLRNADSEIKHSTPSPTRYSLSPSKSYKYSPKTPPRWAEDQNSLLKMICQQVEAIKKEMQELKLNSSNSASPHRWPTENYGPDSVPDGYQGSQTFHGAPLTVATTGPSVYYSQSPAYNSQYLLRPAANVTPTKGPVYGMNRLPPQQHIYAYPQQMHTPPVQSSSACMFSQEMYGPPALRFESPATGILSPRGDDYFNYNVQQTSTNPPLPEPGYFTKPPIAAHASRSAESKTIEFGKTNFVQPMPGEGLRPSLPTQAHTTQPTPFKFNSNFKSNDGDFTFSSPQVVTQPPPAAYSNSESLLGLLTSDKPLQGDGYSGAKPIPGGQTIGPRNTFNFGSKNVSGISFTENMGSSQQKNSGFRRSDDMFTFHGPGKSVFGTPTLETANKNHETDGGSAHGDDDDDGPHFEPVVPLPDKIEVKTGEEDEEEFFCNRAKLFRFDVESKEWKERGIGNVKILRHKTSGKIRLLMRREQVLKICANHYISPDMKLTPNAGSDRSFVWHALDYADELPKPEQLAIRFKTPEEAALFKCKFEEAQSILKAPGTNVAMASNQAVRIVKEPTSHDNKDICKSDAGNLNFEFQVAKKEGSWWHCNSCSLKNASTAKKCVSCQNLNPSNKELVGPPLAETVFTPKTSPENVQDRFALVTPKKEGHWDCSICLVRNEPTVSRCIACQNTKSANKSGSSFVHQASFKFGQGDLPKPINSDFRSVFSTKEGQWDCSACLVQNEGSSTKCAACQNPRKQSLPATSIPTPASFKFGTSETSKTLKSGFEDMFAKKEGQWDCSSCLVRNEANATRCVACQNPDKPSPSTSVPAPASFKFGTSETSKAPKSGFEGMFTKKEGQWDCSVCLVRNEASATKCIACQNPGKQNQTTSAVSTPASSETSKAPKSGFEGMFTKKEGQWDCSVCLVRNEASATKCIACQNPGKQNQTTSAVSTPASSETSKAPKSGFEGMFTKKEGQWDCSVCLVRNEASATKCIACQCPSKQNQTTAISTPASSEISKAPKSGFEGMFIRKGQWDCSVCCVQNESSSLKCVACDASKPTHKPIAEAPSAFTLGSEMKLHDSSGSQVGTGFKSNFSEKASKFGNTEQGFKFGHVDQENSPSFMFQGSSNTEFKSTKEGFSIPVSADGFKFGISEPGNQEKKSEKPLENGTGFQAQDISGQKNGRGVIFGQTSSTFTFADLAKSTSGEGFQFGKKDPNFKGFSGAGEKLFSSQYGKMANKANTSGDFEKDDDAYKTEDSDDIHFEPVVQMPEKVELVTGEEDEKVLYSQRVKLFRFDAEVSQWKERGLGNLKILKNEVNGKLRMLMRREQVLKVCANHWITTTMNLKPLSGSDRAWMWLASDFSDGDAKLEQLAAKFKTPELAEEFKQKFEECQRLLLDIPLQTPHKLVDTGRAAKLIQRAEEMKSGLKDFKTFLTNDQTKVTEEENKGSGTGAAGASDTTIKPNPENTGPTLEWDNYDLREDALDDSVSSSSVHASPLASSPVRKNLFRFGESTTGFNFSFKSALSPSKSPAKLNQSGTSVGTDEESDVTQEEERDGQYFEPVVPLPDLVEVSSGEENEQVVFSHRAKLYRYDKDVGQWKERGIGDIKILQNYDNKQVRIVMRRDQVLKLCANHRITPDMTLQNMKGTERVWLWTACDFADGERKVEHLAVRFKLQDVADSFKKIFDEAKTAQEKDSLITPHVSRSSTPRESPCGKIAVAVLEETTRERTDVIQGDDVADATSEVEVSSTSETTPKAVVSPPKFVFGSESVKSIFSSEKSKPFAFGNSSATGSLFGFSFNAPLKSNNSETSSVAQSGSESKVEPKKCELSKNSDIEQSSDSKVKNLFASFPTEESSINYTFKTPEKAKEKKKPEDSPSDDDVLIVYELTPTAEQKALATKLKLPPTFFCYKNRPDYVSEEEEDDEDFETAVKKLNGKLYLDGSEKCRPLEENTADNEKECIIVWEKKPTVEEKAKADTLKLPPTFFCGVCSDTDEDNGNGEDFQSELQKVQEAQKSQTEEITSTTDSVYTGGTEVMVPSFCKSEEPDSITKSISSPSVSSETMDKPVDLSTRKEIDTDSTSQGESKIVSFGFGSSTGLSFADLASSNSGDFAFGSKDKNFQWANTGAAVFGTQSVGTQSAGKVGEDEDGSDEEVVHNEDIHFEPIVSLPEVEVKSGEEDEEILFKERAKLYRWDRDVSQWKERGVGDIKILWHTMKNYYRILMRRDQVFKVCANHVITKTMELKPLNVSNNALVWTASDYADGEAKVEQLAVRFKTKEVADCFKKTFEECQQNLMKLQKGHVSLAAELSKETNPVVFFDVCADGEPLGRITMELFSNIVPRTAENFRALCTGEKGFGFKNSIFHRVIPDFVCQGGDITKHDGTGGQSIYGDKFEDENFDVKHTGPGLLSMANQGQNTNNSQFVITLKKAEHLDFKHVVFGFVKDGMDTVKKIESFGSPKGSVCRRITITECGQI
BPN (as used in supplementary Fig. S1A): residues 1-900 of P49792
UniProt Q9Z340: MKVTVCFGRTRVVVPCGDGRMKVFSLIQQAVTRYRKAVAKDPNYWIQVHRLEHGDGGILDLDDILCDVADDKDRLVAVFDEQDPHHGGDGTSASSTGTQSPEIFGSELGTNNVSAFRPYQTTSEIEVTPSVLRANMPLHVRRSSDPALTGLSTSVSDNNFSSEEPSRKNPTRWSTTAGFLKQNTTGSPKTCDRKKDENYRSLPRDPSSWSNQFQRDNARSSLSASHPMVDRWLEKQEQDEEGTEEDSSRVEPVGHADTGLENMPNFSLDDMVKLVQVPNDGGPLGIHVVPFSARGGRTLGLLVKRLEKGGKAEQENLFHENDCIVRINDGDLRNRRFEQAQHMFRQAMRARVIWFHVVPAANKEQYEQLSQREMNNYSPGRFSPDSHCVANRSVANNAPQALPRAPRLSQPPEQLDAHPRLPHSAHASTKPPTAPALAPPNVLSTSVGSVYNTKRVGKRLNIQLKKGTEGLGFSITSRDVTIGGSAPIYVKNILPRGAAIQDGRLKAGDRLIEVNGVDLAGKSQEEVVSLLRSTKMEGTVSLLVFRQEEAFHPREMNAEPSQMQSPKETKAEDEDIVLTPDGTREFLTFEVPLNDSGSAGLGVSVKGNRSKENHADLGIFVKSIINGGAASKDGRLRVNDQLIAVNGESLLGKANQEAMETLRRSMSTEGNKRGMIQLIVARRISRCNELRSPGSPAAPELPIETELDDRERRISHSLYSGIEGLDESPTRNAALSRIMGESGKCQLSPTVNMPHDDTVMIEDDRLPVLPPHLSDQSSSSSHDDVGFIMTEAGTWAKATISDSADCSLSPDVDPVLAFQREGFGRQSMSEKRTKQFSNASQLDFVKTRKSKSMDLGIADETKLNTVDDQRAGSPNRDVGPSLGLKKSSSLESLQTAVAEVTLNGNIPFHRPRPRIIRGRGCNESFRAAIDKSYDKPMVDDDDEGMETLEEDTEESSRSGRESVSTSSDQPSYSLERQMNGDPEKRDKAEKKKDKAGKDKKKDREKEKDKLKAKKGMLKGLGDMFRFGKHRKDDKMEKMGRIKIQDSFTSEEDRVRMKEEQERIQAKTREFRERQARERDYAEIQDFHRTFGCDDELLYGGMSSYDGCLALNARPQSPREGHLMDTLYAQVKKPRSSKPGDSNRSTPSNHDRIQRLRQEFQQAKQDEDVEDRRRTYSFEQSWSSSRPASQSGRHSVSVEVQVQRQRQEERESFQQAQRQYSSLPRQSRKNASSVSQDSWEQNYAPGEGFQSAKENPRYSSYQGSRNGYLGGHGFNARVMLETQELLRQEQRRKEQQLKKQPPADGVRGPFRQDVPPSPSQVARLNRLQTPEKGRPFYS

Assays:
[1] = molecular target: Nup358 (endogenous, HEK293T) (human (endogenous in HEK293T)) (UniProt P49792); test: co-IP; Nup358 with ectopically expressed PKCζ wild type or kinase dead, HA-Par3 or myc-Par6 (supplementary Fig. S2A-C); legends not shown
[2] = molecular target: T1, HA-PKCζ (human) (UniProt Q05513); test: co-IP; cells co-transfected with HA-PKCζ and GFP-tagged BPN, BPM or BPC; immunoprecipitation with EZview HA beads (EZview control beads as control); immunoblot
T1 sequence: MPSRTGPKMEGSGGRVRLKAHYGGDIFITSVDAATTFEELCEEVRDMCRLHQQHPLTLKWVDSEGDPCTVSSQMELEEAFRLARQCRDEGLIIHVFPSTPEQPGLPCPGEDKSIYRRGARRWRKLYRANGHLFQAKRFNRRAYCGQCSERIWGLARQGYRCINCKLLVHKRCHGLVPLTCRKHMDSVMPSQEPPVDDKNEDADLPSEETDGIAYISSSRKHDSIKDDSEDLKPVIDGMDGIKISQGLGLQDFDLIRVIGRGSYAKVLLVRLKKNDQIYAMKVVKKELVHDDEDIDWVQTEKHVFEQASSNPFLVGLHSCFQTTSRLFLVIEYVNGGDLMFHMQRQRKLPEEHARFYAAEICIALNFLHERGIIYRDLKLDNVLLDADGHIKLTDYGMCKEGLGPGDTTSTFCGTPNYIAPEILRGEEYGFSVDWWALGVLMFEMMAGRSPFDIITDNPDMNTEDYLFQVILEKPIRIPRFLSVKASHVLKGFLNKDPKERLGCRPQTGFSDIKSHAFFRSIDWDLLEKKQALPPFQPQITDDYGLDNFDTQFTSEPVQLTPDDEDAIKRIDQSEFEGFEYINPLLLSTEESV

[3] = molecular target: T2, GFP-Dvl-M (Dvl1 211–425 amino acids) (mouse) (UniProt P51141); test: co-IP; co-expressed GFP-tagged and HA-tagged proteins; immunoprecipitation with anti-GFP antibodies; blot for GFP and HA; cytoskeleton extraction buffer, 2 hours at 4°C
T2 sequence: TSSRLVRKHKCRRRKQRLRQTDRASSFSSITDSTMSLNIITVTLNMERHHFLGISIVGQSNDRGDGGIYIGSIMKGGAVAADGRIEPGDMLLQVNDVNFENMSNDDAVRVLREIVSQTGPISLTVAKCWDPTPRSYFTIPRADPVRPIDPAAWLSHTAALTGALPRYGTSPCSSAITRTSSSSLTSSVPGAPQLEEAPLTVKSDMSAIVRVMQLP

[4] = molecular target: GFP-BPN (Nup358 N-terminus, 1–900 amino acids) (human) (UniProt P49792); test: as above
[5] = molecular target: Nup358 (endogenous, HEK293T) (human (endogenous in HEK293T)) (UniProt P49792); test: co-IP; endogenous Nup358 immunoprecipitated with rabbit polyclonal anti-Nup358 (control rabbit IgG) from lysate of HEK293T cells, untransfected or expressing an HA-tagged partner; cytoskeleton extraction buffer (10 mM Tris-HCl pH 7.4, 100 mM NaCl, 1% Triton X-100, 0.1% SDS, 0.5% deoxycholate), 2 hours at 4°C; western blot
[6] = substrate: BPN (as used in supplementary Fig. S1A) (human) (UniProt P49792); test: co-IP; Dvl2 and its deletion mutants with BPN (supplementary Fig. S1A); legend not shown

Molecule: HA-Par3 (rat Par3 homolog ASIP) (from UniProt Q9Z340 1-1337)
binding [1]: binds

Molecule: GFP-BPC (Nup358 C terminus, 2220–3224 amino acids) (from UniProt P49792 2220-3224) (domain or fragment)
binding [2]: binds weakly

Molecule: HA-BPN (from UniProt P49792 1-900) (domain or fragment)
binding [3]: binds

Molecule: GFP-BPN (Nup358 N-terminus, 1–900 amino acids) (from UniProt P49792 1-900) (domain or fragment)
binding [2]: binds

Next, values leading:

binding [1]: binds
B1: myc-Par6 (hPAR6C) (protein, UniProt Q9NPB6 1-346)
chain: MARPQRTPARSPDSIVEVKSKFDAEFRRFALPRASVSGFQEFSRLLRAVHQIPGLDVLLGYTDAHGDLLPLTNDDSLHRALASGPPPLRLLVQKRAEADSSGLAFASNSLQRRKKGLLLRPVAPLRTRPPLLISLPQDFRQVSSVIDVDLLPETHRRVRLHKHGSDRPLGFYIRDGMSVRVAPQGLERVPGIFISRLVRGGLAESTGLLAVSDEILEVNGIEVAGKTLDQVTDMMVANSHNLIVTVKPANQRNNVVRGASGRLTGPPSAGPGPAEPDSDDDSSDLVIENRQPPSSNGLSQGPPCWDLHPGCRHPGTRSSLPSLDDQEQASSGWGSRIRGDGSGFSL

binding [4]: binds
binding [5]: binds
B2: HA-tagged Dvl1 (protein, UniProt P51141 1-695)
chain: MAETKIIYHMDEEETPYLVKLPVAPERVTLADFKNVLSNRPVHAYKFFFKSMDQDFGVVKEEIFDDNAKLPCFNGRVVSWLVLAEGAHSDAGSQGTDSHTDLPPPLERTGGIGDSRPPSFHPNVASSRDGMDNETGTESMVSHRRERARRRNRDEAARTNGHPRGDRRRDLGLPPDSASTVLSSELESSSFIDSDEEDNTSRLSSSTEQSTSSRLVRKHKCRRRKQRLRQTDRASSFSSITDSTMSLNIITVTLNMERHHFLGISIVGQSNDRGDGGIYIGSIMKGGAVAADGRIEPGDMLLQVNDVNFENMSNDDAVRVLREIVSQTGPISLTVAKCWDPTPRSYFTIPRADPVRPIDPAAWLSHTAALTGALPRYGTSPCSSAITRTSSSSLTSSVPGAPQLEEAPLTVKSDMSAIVRVMQLPDSGLEIRDRMWLKITIANAVIGADVVDWLYTHVEGFKERREARKYASSMLKHGFLRHTVNKITFSEQCYYVFGDLCSNLASLNLNSGSSGASDQDTLAPLPHPSVPWPLGQGYPYQYPGPPPCFPPAYQDPGFSCGSGSAGSQQSEGSKSSGSTRSSHRTPGREERRATGAGGSGSESDHTVPSGSGSTGWWERPVSQLSRGSSPRSQASAVAPGLPPLHPLTKAYAVVGGPPGGPPVRELAAVPPELTGSRQSFQKAMGNPCEFFVDIM

binding [5]: binds
B3: aPKC (PKCζ), endogenous, HEK293T (enzyme, UniProt Q05513 1-592)
chain: T1 sequence

binding [1]: binds
B4: PKCζ wild type (as used in supplementary Fig. S2A) (enzyme, UniProt Q05513 1-592)
chain: T1 sequence

binding [5]: binds
B5: HA-PKCζ-C (236–592 amino acids) (domain or fragment, UniProt Q05513 236-592)
chain: DGMDGIKISQGLGLQDFDLIRVIGRGSYAKVLLVRLKKNDQIYAMKVVKKELVHDDEDIDWVQTEKHVFEQASSNPFLVGLHSCFQTTSRLFLVIEYVNGGDLMFHMQRQRKLPEEHARFYAAEICIALNFLHERGIIYRDLKLDNVLLDADGHIKLTDYGMCKEGLGPGDTTSTFCGTPNYIAPEILRGEEYGFSVDWWALGVLMFEMMAGRSPFDIITDNPDMNTEDYLFQVILEKPIRIPRFLSVKASHVLKGFLNKDPKERLGCRPQTGFSDIKSHAFFRSIDWDLLEKKQALPPFQPQITDDYGLDNFDTQFTSEPVQLTPDDEDAIKRIDQSEFEGFEYINPLLLSTEESV

binding [6]: binds
B6: Mouse Dvl2 (protein, UniProt Q60838 1-736)
chain: MAGSSAGGGGVGETKVIYHLDEEETPYLVKIPVPAERITLGDFKSVLQRPAGAKYFFKSMDQDFGVVKEEISDDNARLPCFNGRVVSWLVSSDTPQPEVAPPAHESRTELVPPPPPLPPLPPERTSGIGDSRPPSFHPNVSSSHENLEPETETESVVSLRRDRPRRRDSSEHGAGGHRPGGPSRLERHLAGYESSSTLMTSELESTSLGDSDEDDTMSRFSSSTEQSSASRLLKRHRRRRKQRPPRMERTSSFSSVTDSTMSLNIITVTLNMEKYNFLGISIVGQSNERGDGGIYIGSIMKGGAVAADGRIEPGDMLLQVNDMNFENMSNDDAVRVLRDIVHKPGPIVLTVAKCWDPSPQAYFTLPRNEPIQPIDPAAWVSHSAALTGAFPAYPGSSSMSTITSGSSLPDGCEGRGLSVHMDMASVTKAMAAPESGLEVRDRMWLKITIPNAFLGSDVVDWLYHHVEGFPERREARKYASGLLKAGLIRHTVNKITFSEQCYYVFGDLSGGCESYLVNLSLNDNDGSSGASDQDTLAPLPGATPWPLLPTFSYQYPAPHPYSPQPPPYHELSSYTYGGGSASSQHSEGSRSSGSTRSDGGAGRTGRPEERAPESKSGSGSESELSSRGGSLRRGGEPGGTGDGGPPPSRGSTGAPPNLRALPGLHPYGAPSGMALPYNPMMVVMMPPPPPPVSTAVQPPGAPPVRDLGSVPPELTASRQSFHMAMGNPSEFFVDVM
